Assay [1] deals with MCF-7 (breast adenocarcinoma). As to the kind of experiment: Dark cytotoxicity, Trypan blue exclusion test. It is filed as cell-based, human. Conditions: read-out: IC50 (μM) ± S.E.M. MCF-7, 48 h incubation.
Another assay concerns HeLa (cervix carcinoma). The experiment in a line: Dark cytotoxicity, Trypan blue exclusion test. It is filed as cell-based, human. The following applies: read-out: IC50 (μM) ± S.E.M. HeLa, 48 h incubation. Summed up: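 HeLa cells were grown in DMEM with 10% FBS, 2 mM L-glutamine and penicillin/streptomycin at 37 °C. They were seeded at 0.5 × 10^6/mL in glass vials, given 24 h, then exposed for 48 h in the dark to test compound in distilled water at various concentrations. Cells were trypsinised, stained 5–15 min with 0.4% Trypan blue and counted by hemocytometer. […] IC50 was derived from at least three experiments, mean ± S.E.M.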

Here are results for one molecule from PMC4527612 (Journal of inorganic biochemistry, 2014).

The term IC50 denotes the point on the concentration scale where inhibition reaches its midpoint. Take `N.N.[Cl][Pt][Cl]` [Cisplatin, cisplatin, reference compound]: the IC50 in assay [1] amounted to 46.7 ± 3.6 µM; in the assay on HeLa (cervix carcinoma), 11 ± 1.4 µM.
